Experimental data as given in PubChem BioAssay AID595 (National Center for Advancing Translational Sciences (NCATS), 2007).
“And” between values parts separate entries of the source, which are not always exact repeats. Equal entries are not always repeated. The campaign covered roughly 71,000 compounds. About 310 (0.44%) were called active. The shares of active, inactive and inconclusive entries below differ from those in the screen. Calls come from the whole dose curve; as a rule, active = well fitted curve in either direction with a large enough effect; inconclusive = small, poorly fitted or top-dose-only effect, or another doubt; inactive = flat fitted curve, though single readings scatter. A potency beside an inconclusive call is a rough fit, not a confirmed value.
% is set by controls: 0 for no effect and ±100 for the full control effect; potency is the fitted concentration of half-maximal effect.

What follows are compounds tested on Hsp90 C-terminal peptide / TPR2A (Hop) interaction, human (assay: qHTS Assay for Disrupters of an Hsp90 Co-Chaperone Interaction). Settings: AlphaScreen TPR2A-His6 binding biotin-Hsp90 C-terminal peptide; activity change, negative = inhibition: at 57 µM (top of the series) unless noted.
For COCCCn1c(N)c(C(=O)NCCC(C)C)c2nc3ccccc3nc21, the Potency was active: 25.1 µM [activator].
For CN1CC[C@@]2(c3cccc(O)c3)Cc3nc4ccccc4cc3C[C@H]2C1, the “activity change, negative = inhibition” value was inactive: -2.7%.
With CCOC(=O)N(CC)c1ccc(C(O)(C(=O)OCC)C(F)(F)F)cc1 (stereo not drawn) the “activity change, negative = inhibition” value was inactive: -2.61%.
For CCOC(=O)N1CCC(NC(=O)CCc2nc(C3=CCN(C)CC3)no2)CC1, the Potency was inconclusive: 15.8 µM [inhibitor, partial curve].
For CCCCCCCCOC(=O)c1ccccc1C(=O)OCCCCCCCC, the activity change, negative = inhibition was inconclusive: 121%.
With O=C1Nc2cc(Cl)c(Cl)cc2N2CCNC[C@H]12 the activity change, negative = inhibition was inconclusive: 41%.
CSC([N-]/N=C/c1cccc(C)n1)=[S]=[Cu].CS[C@H]([S-])[N-]/N=C/c1cccc(C)n1 was tested, and the Potency was active: 3.16 µM.
With COc1ccc(N=C(C)c2c(O)n(C)c(=O)n(C)c2=O)c(OC)c1 the “activity change, negative = inhibition” value was inactive: -0.832%.
For COc1cccc2c1C(=O)c1c(O)c3c(c(O)c1C2=O)C[C@](O)(/C(C)=N\O)C[C@@H]3O[C@H]1C[C@H](N)[C@@H](O)[C@H](C)O1, the activity change, negative = inhibition was inactive: -4.99% [at 11 µM].
In the case of O=C(c1cccs1)N1C2CCC1CC(O)(c1cccnc1)C2 (stereo not drawn), the activity change, negative = inhibition is reported as inconclusive: 51.1%.
With O=c1c2ccccc2[se]n1-c1ccccc1 the Potency was inconclusive: 15.8 µM [inhibitor, partial curve].
CCC(=NC1CCN(Cc2ccccc2)CC1)c1c(O)[nH]c(=O)[nH]c1=O was tested, and the “activity change, negative = inhibition” value was inactive: -0.99%.
CC(C)C[C@H](NP(=O)(O)O[C@@H]1O[C@@H](C)[C@@H](O)[C@@H](O)[C@H]1O)C(=O)N[C@@H](Cc1c[nH]c2ccccc12)C(=O)O was tested, and the “activity change, negative = inhibition” value was inactive: -3.03%.
With C[C@H]1CCCC(=O)CCC/C=C/c2cc(O)cc(O)c2C(=O)O1 the activity change, negative = inhibition was inconclusive: 51.6%.
CCCN(CCC)CCc1c[nH]c2ccc(C(N)=O)cc12 was tested, and the activity change, negative = inhibition was inconclusive: 71.9%.
C[C@@]12Cc3cnc(-c4ccccc4)nc3C[C@@H]1CC[C@@H]1[C@H]3CC[C@@](C)(O)[C@]3(C)CC[C@@H]12 was tested, and the activity change, negative = inhibition was inactive: -3.24% [at 11 µM].
With CCOC(=O)c1cn2nc(OP(=S)(OCC)OCC)cc2nc1C the Potency was inconclusive: 25.1 µM [activator, single point].
For c1cc(N2CCCC3(CCNCC3)C2)ccn1, the “activity change, negative = inhibition” value was inactive: -3.6%.
With CCCN(CCC)c1c([N+](=O)[O-])cc(C(F)(F)F)cc1[N+](=O)[O-] the Potency was inconclusive: 12.6 µM [inhibitor, partial curve].
In the case of Cc1ccc2nc(N3CCN(C)CC3)[nH]c2c1, the “activity change, negative = inhibition” value is reported as inactive: 2.86%.
With Nc1c(C(=O)OC2CCCCC2)c2nc3ccccc3nc2n1CC1CCCO1 (stereo not drawn) the Potency was inconclusive: 31.6 µM [activator, single point].
Nc1c(C(=O)NCCc2ccccc2)c2nc3ccccc3nc2n1CCN1CCOCC1 was tested, and the Potency was inconclusive: 15.8 µM [activator, partial curve].
In the case of CC(C)OCCCNC(=O)c1c(N)n(CC2CCCO2)c2nc3ccccc3nc12 (stereo not drawn), the Potency is reported as inconclusive: 31.6 µM [activator, single point].
For CCC(C)NC(=O)c1c(N)n(Cc2ccc3c(c2)OCO3)c2nc3ccccc3nc12 (stereo not drawn), the Potency was inconclusive: 15.8 µM [activator, partial curve].
For O=C(O)Cc1cccnc1C(=O)O, the Potency was active: 7.94 µM.
For O=[N+]([O-])c1cc(O)c(O)c([N+](=O)[O-])c1, the Potency was inconclusive: 10 µM [inhibitor, partial curve] and inconclusive: 31.6 µM [inhibitor, partial curve].
With CCOC(=O)c1c(-c2ccc(OC)cc2)oc2ccc(OC(=O)N(C)C)cc12 the Potency was inconclusive: 31.6 µM [activator, single point].
CCCN1CC[C@@H]2c3cc(O)ccc3CC[C@H]21 was tested, and the “activity change, negative = inhibition” value was inactive: -7.02%.
For C[C@H](N)[C@H](O)c1ccc(O)c(O)c1, the Potency was inconclusive: 20 µM [inhibitor, partial curve].
For CN(N=O)c1ccc(O)c(O)c1, the Potency was active: 3.16 µM.
With CCN1C[C@]2(C)CC[C@@H](O)[C@]34[C@@H]5CC6[C@@H](OC)C[C@@](O)([C@H]5[C@@H]6O)[C@@H](C[C@@H]23)[C@H]14 the “activity change, negative = inhibition” value was inactive: -1.83%.
For Brc1ccc(Oc2cc(Br)c(Br)cc2Br)c(Br)c1, the Potency was inconclusive: 39.8 µM [activator, single point] and active: 31.6 µM [activator].
For O=C(O)c1cccc(Cl)c1, the “activity change, negative = inhibition” value was inactive: 2.68%.
For COc1ccc2c(c1)[C@]13CCCC[C@@H]1[C@H](C2)N(C)CC3, the “activity change, negative = inhibition” value was inactive: -1.76%.
For COC(C)(C)CCCC(C)C/C=C/C(C)=C/C(=O)OC(C)C (stereo not drawn), the Potency was inconclusive: 31.6 µM [activator, partial curve].
CCC/C=C(\CCC)C(NP(=O)(c1ccccc1)c1ccccc1)c1ccccc1 (stereo not drawn) was tested, and the activity change, negative = inhibition was inconclusive: 49.7%.
CC(C)CCOC(=O)c1c(N)n(CC2CCCO2)c2nc3ccccc3nc12 (stereo not drawn) was tested, and the Potency was inconclusive: 31.6 µM [activator, single point].
COP(=S)(OC)Oc1ccc(SC)c(C)c1 was tested, and the Potency was inconclusive: 31.6 µM [activator, partial curve].
With CN1C[C@H](CNC(=O)OCc2ccccc2)C[C@H]2c3cccc4c3c(cn4C)C[C@@H]21 the activity change, negative = inhibition was inconclusive: 19.4%.
With COc1ccc(C[C@@H]2NC[C@H](O)[C@H]2OC(C)=O)cc1 the “activity change, negative = inhibition” value was inactive: -1.8%.
In the case of CC(C)CCNC(=O)c1c(N)n(CC2CCCO2)c2nc3ccccc3nc12 (stereo not drawn), the Potency is reported as inconclusive: 25.1 µM [inhibitor, single point].
For Cc1nc2cc(C(=O)N3CCC4(CC3)OCCO4)ccc2n1-c1cccc(F)c1, the “activity change, negative = inhibition” value was inactive: -2.93%.
With CCCCOC(=O)c1ccccc1C(=O)OCc1ccccc1 the activity change, negative = inhibition was inconclusive: 118%.
With Cc1nnc2ccc(N3CCN(C)CC3)nn12 the activity change, negative = inhibition was inconclusive: 42%.
For C[C@H]1CC[C@@H]2[C@@H](C)C(=O)O[C@H]3O[C@@]4(C)CC[C@@H]1[C@]32OO4, the “activity change, negative = inhibition” value was inactive: 0.018%.
C=CC(=O)OCC was tested, and the “activity change, negative = inhibition” value was inactive: -0.548%.
With COc1cc(C=C(C#N)C#N)cc(O)c1O the Potency was inconclusive: 12.6 µM [inhibitor].
In the case of Cl.Cl.Cl.Cl.Cl.Cl.N.N.N.N.NNNNN.NNNNN.O.O.[Ru].[Ru].[Ru], the Potency is reported as inconclusive: 39.8 µM [inhibitor, partial curve].
